Holding throughout (experiment): co-IP
The target of experiment [1] is KSHV replication and transcription activator (RTA), induced by doxycycline in iSLK cells (KSHV (human herpesvirus 8)) (UniProt F5HCV3).
Experiment [2] has as its target PPP2R1A, scaffold A subunit of phosphatase PP2A, Flag-tagged (human (cDNA from iSLK.RGB cells)) (UniProt P30153).
For experiment [3], the target named is KSHV replication and transcription activator (RTA), Flag-tagged (KSHV (human herpesvirus 8)) (UniProt F5HCV3).

Chains of the proteins cited; added tags and fusions are not shown.
UniProt F5HCV3: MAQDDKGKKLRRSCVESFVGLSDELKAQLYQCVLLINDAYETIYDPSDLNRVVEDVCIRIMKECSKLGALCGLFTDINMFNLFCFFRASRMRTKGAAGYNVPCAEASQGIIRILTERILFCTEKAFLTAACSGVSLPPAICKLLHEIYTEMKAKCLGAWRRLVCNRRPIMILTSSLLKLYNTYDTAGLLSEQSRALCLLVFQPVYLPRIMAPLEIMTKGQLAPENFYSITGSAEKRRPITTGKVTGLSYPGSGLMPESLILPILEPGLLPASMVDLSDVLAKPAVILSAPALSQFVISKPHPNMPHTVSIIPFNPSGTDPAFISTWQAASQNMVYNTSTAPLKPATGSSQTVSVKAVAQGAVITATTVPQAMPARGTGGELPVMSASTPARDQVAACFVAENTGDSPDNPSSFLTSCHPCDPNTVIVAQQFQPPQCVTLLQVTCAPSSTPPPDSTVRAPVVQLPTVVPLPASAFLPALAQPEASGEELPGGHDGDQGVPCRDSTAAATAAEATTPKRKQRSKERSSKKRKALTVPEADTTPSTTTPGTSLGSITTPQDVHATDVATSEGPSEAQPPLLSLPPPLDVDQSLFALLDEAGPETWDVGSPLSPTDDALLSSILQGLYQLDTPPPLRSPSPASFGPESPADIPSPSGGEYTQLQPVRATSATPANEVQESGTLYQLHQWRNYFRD
UniProt P30153: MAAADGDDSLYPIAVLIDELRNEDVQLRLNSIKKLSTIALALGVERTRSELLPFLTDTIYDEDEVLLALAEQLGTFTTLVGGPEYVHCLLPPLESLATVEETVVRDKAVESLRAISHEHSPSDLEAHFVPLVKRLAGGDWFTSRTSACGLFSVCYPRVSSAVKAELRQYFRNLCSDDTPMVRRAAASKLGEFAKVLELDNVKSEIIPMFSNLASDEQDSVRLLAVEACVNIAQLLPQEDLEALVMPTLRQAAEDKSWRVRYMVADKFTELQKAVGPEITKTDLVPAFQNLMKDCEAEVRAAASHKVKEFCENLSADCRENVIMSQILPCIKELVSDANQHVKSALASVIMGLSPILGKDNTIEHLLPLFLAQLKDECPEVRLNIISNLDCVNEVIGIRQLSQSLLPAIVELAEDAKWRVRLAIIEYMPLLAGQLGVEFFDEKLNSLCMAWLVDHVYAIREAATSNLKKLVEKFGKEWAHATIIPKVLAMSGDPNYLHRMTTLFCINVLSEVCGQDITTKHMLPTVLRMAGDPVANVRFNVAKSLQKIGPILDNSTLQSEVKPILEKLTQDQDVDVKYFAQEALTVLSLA

Results are given in words; binding and its absence hold for the method and conditions named. In cells and extracts the contact can be indirect. Some entries that bind do so weakly or less than the wild type.

“endogenous PPP2R1A, scaffold A subunit of phosphatase PP2A (from UniProt P30153 1-589)”: in experiment [1], the binding entry is listed as “binds”.

As to “KSHV replication and transcription activator (RTA), HA-tagged (from UniProt F5HCV3 1-691)”, the binding result in experiment [2] is “binds”.

For the substance “PPP2R1A, scaffold A subunit of phosphatase PP2A, HA-tagged (from UniProt P30153 1-589)”, the binding result in experiment [3] is listed as “binds”.

For the origin of these results see publication PMC12674568.
